Measured values published in patent publication JP2021530247A.
Results are given in words; binding and its absence hold for the method and conditions named. Some results given as binding are weak or reduced against the parent protein; the word gives no strength.

Amino acid sequences for entries named in this document (tags omitted). A change or cut given only in a name is not applied to a line headed by its entry. Chains listed by the source or under a name are the forms on record and can include a tag or linker.
C末端10×His BCL-2断片 HuBcl-2 10×His pET303 (P10415, form named): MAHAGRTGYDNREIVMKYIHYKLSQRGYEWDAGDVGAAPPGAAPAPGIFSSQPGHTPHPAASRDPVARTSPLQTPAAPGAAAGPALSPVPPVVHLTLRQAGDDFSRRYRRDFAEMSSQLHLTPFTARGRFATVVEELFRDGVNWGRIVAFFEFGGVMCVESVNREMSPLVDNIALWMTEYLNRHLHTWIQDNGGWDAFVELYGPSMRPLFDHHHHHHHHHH

Experiments:
[1] = target: C末端10×His BCL-2断片 HuBcl-2 10×His pET303 (human) (UniProt P10415); experiment: lateral flow (LFS), detector
[2] = target: C末端10×His BCL-2断片 HuBcl-2 10×His pET303 (human) (UniProt P10415); experiment: semi-optimised sandwich ELISA, detector with 10A12 capture
[3] = target: C末端10×His BCL-2断片 HuBcl-2 10×His pET303 (human) (UniProt P10415); experiment: lateral flow assay, 40 nm gold detector with 10A12 capture, 100 ng/mL BCL-2
[4] = target: C末端10×His BCL-2断片 HuBcl-2 10×His pET303 (human) (UniProt P10415); experiment: sandwich EIA, biotinylated detector 1:1K, 2 ng/mL rBCL-2
[5] = target: C末端10×His BCL-2断片 HuBcl-2 10×His pET303 (human) (UniProt P10415); experiment: lateral flow assay, detector
[6] = target: C末端10×His BCL-2断片 HuBcl-2 10×His pET303 (human) (UniProt P10415); experiment: matched-pair sandwich ELISA, biotin tracer with 10A12 capture, 25 ng/mL rBcl-2
[7] = target: C末端10×His BCL-2断片 HuBcl-2 10×His pET303 (human) (UniProt P10415); experiment: lateral flow assay, gold detector, 0/1/10/100 ng/mL BCL-2
[8] = target: C末端10×His BCL-2断片 HuBcl-2 10×His pET303 (human) (UniProt P10415); experiment: lateral flow assay, striped capture 0.5 mg/mL, 0/1/10/100 ng/mL BCL-2
[9] = target: C末端10×His BCL-2断片 HuBcl-2 10×His pET303 (human) (UniProt P10415); experiment: lateral flow assay, capture spot 0.5 mg/mL, 100 ng/mL BCL-2
[10] = target: C末端10×His BCL-2断片 HuBcl-2 10×His pET303 (human) (UniProt P10415); experiment: semi-optimised sandwich ELISA, capture
[11] = target: C末端10×His BCL-2断片 HuBcl-2 10×His pET303 (human) (UniProt P10415); experiment: matched-pair sandwich ELISA, capture 2 ug/mL, biotin conjugate 1 ug/mL, 25 ng/mL rBcl-2
[12] = target: C末端10×His BCL-2断片 HuBcl-2 10×His pET303 (human) (UniProt P10415); experiment: sandwich EIA, 200 ng capture per well, biotinylated detector 1:1K, 2 ng/mL rBCL-2
[13] = target: C末端10×His BCL-2断片 HuBcl-2 10×His pET303 (human) (UniProt P10415); experiment: lateral flow assay, detector (also capture in set #3)
[14] = target: C末端10×His BCL-2断片 HuBcl-2 10×His pET303 (human) (UniProt P10415); experiment: lateral flow assay, gold detector with 18E10 or 02C10 capture, 100 ng/mL BCL-2
[15] = target: C末端10×His BCL-2断片 HuBcl-2 10×His pET303 (human) (UniProt P10415); experiment: lateral flow (LFS), detector or capture

Measured: binding

B1: Bcl-2-61 Pep-KLH-BA-1.1-14A09-02C08-02F06 (antibody, V domains shown)
VH: EVQLQQSGPELVNPGASVKMSCKASGYTFTDYYLDWVKQSHGESFEWIGRANPYNGVTNSNQKFKGKATLTVDMSSSTAFMELNSLTFEDSAVYYCARSSFDVWGAGTTVTVSS
VL: DIVITQDELSHPVTSGESVSISCRSSKSLLYKDGKTYLNWFLQRPGQSPQLLIYLVSTRASGVSDRFSGSGSGTDFTLEISRVKAEDVGVYYCQQPVEYPFTFGSGTKLEIK
binds: [1] | [2] | [3] | [4] | [5] | [6] | [7]

B2: Bcl-2-41 Pep-KLH-BA-1.3-10A12-02F02 (antibody, V domains shown)
VH: QVQLQQSGPQLVRPGASVKISCKASGYSFTSYWMHWVKQRPGQGLEWIGMIDPSDSETRLNQKFKDKATLTVDKSSSTAYMQLSRPTFEDSAVYYCERGDYYYGSSYFAYWGQGTLVTVSA
VL: QAVVTQESALTTSPGETITLTCRSSTGAVTTSNYATWVQEKPDHLFTGLMGGTTYRAPGVPARFSGSLIGDKAALTITGAQTEDEAMYFCALWFSNHFWVFGGGTKLTVL
not listed: [1] | [2] | [3] | [4] | [5] | [6]
binds: all other assays above
